# In PubChem BioAssay AID504444 (National Center for Advancing Translational Sciences (NCATS), 2011):
# About 7,500 (2.1%) of roughly 360,000 compounds were called active. This list was built around the results that the source calls inconclusive (neither active nor inactive); the mix of calls is not that of the screen. Calls follow the shape of the dose curve; as a rule, active = well fitted inhibition curve with a large enough effect; inconclusive = small, poorly fitted or top-dose-only effect, or effect the other way; inactive = flat fitted curve, though single readings scatter. Potencies of inconclusive entries are doubtful fits and often do not repeat.
# Assay: Nrf2 qHTS screen for inhibitors; also: nearly all actives have a fitted effect of over 60% in size
# Conditions: A549 ARE-Fluc reporter, luciferase luminescence, 18-24 h; series mostly up to 46 µM
# Method in brief: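 Cells were seeded and rested 2 h, then exposed to compounds for 18-24 h. CellTiter-Fluor was read first as a viability measure. BugLite was added 15 min before the final luminescent read of ARE-luciferase activity in A549 cells.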
# Potency is read from the fitted curve at half-maximal effect.
row,SMILES,Potency
1,Cc1ccccc1C(=O)c1cccn1CC(=O)NCCCN1CC(C)CC(C)C1 (configuration not stated),"inconclusive: 29.1 µM [activator, single point]"
2,COc1ccc(OC)c(N2C(=O)CC(Cc3cc(C)cc(C)c3)C2=O)c1 (configuration not stated),"inconclusive: 5.17 µM [falling, full curve, poor fit]"
3,COc1ccc(N(C)C(=O)c2cn(CC(C)C)c(=O)c3cc(OC)c(OC)cc23)c(OC)c1,inactive
4,Cc1csc2c(N3CCN(C(=O)c4ccc(C(C)(C)C)cc4)CC3)ncnc12,inactive
5,COc1ccc(NC2=C(c3ccccc3)C(=O)c3ccccc32)cc1Cl,inactive
6,O=C1CCc2cc(S(=O)(=O)Nc3cccc(Br)c3)ccc2N1,"inconclusive: 18.4 µM [falling, single point]"
7,CCc1ccccc1NC(=O)c1cnn(-c2ccc(F)cc2)c1C1CCNCC1,"inconclusive: 29.1 µM [activator, single point]"
8,O=S(=O)(c1ccccc1)N1CCN=C1SCc1ccc(Cl)c(Cl)c1,inactive
9,Cc1cccc(OCCOCCn2c(-c3ccc(Cl)cc3)nc3ccccc3c2=O)c1C,inactive
10,Cc1ccc(S(=O)(=O)n2ccc3c(OCCOCCSCC(NC(=O)OC(C)(C)C)C(=O)O)cccc32)cc1 (configuration not stated),"inconclusive: 18.4 µM [falling, single point]"
11,COc1ccc(OC)c(Nc2nc(-c3ccncc3)nc3ccccc23)c1,inactive
12,Cc1ccc(C(C)C)c(OCCCn2c(=O)oc3ccc(C)cc32)c1,inactive
13,CCc1ccccc1NC(=O)Cn1nnc(C(=O)Nc2ccc(OC)c(OC)c2)c1N,"inconclusive: 29.1 µM [activator, single point]"
14,CC(=O)NC1=NC(=O)/C(=C/c2cn(C(C)=O)nc2-c2ccccc2)S1,"inconclusive: 5.8 µM [falling, full curve]"
15,NS(=O)(=O)c1ccc(CCNc2nc3c(-c4cccc(F)c4)nnn3c3ccccc23)cc1,inactive
16,CCOc1cccc(C(=O)Nc2ccc(-c3nc4cc(C)cc(C)c4o3)cc2)c1,"inconclusive: 1.3 µM [falling, partial curve, poor fit]"
17,Cc1ccc(NC(=O)Cn2c(=O)cnc3ccccc32)cc1S(=O)(=O)N1CCCCC1,active: 13 µM
18,CCOC(=O)CC(C)(C)/C(C)=N/Nc1ccc([N+](=O)[O-])cc1[N+](=O)[O-],active: 18.4 µM
19,Cc1[nH]nc2nc(SCC(=O)NC3CCCCC3)n(-c3ccc(Br)cc3)c(=N)c12,active: 18.4 µM
20,CCCCN(Cc1ccco1)C(=O)c1cc2c(s1)-c1c(C)cccc1OC2,"inconclusive: 13 µM [falling, partial curve, poor fit]"
21,N#Cc1ccc(NC(=O)c2ccc3c(c2)nnn3C2CCCC2)cc1,"inconclusive: 10.3 µM [activator, partial curve, poor fit]"
22,N#C/C(=C\c1ccc(N2CCCCC2)o1)C(=O)Nc1cccc(Br)c1,"inconclusive: 0.82 µM [activator, full curve, poor fit]"
23,O=C(CSc1ccccc1)NC1CCCCCC1,"inconclusive: 9.2 µM [activator, partial curve]"

row,SMILES,Potency
1,CCOc1ccccc1C(=O)Nc1cc(-c2nc3cccnc3s2)ccc1C,"inconclusive: 0.731 µM [activator, full curve]"
2,CCC(Sc1ncnc2sc3c(c12)CCCC3)C(=O)OCC(C)C (configuration not stated),inactive
3,COc1ccc(-n2c(SCc3nc(-c4ccc(Cl)cc4)no3)nnc2-c2ccncc2)cc1,"inconclusive: 29.1 µM [falling, single point]"
4,CNc1ccccc1C(C)(C)c1cc(-c2cccc([N+](=O)[O-])c2)no1,inactive
5,C=C1CCN([C@@H](Cc2ccccc2)C(=O)Nc2ccc(OC)cc2)S(=O)(=O)c2ccccc21,inactive
6,Cc1cc(C(=O)CN2C(=O)NC3(CCCc4sccc43)C2=O)c(C)n1-c1ccccc1 (configuration not stated),"inconclusive: 29.1 µM [falling, single point]"
7,CCOc1ccc(-c2cc(CCCC(=O)NCCc3ccc(OC)c(OC)c3)no2)cc1,"inconclusive: 20.6 µM [falling, single point]"
8,NC(=S)N/N=C1\CCOc2ccc(F)cc21,"inconclusive: 29.1 µM [falling, single point]"
9,O=C1CCCc2nc(N3CCN(C(c4ccccc4)c4ccccc4)CC3)ncc21,"inconclusive: 29.1 µM [falling, single point]"
10,Cc1ccsc1/C=N/n1c(-c2cc(-c3ccccc3)n[nH]2)n[nH]c1=S,"inconclusive: 16.4 µM [falling, single point]"
11,CCOc1ccccc1NC(=O)CCCCCN1C(=O)[C@@H]2Cc3ccccc3CN2C1=O,"inconclusive: 2.06 µM [falling, partial curve, poor fit]"
12,O=C(OCC(=O)N1CCN(C(=O)c2ccco2)CC1)c1sc2ccccc2c1Cl,"inconclusive: 32.6 µM [falling, single point]"
13,CC(C)(C)C(=O)Nc1ccc2nc(SCCOc3ccccc3Cl)sc2c1,inactive
14,Clc1cccc(Cl)c1-c1nnc2ccc(N3CCOCC3)nn12,"inconclusive: 29.1 µM [falling, single point]"
15,COc1ccc(-n2c(=S)[nH]c3cc(C(=O)NCc4ccco4)ccc3c2=O)c(OC)c1,"inconclusive: 25.9 µM [falling, single point]"
16,Cc1ccc2nsnc2c1NC(=O)c1ccc([N+](=O)[O-])cc1,"inconclusive: 18.4 µM [falling, partial curve, poor fit]"
17,COc1ccc(/C(C)=N/N2CCCCC2)c(O)c1,"inconclusive: 2.31 µM [activator, partial curve]"
18,CCOC(=O)c1c(C)c(C)n(Cc2ccc(OC)c(OC)c2)c1C,"inconclusive: 25.9 µM [falling, partial curve, poor fit]"
19,Cc1ccc(C)c(N2CCN(C(=O)C3CCC(CNS(=O)(=O)c4ccc(Br)s4)CC3)CC2)c1 (configuration not stated),"inconclusive: 3.66 µM [falling, partial curve, poor fit]"
20,COc1ccc(S(=O)(=O)N2CCC(C(=O)N[C@H](C(=O)NCc3ccncc3)C(C)C)CC2)cc1,"inconclusive: 8.2 µM [activator, partial curve, poor fit]"
21,Cc1ccccc1N=C(NOCc1ccc(Cl)cc1Cl)c1nonc1N,"inconclusive: 20.6 µM [falling, partial curve, poor fit]"
22,COc1ccc(NC(=O)c2ccco2)cc1NC(=O)c1cccc(OC(C)C)c1,"inconclusive: 8.2 µM [falling, partial curve]"
23,Fc1ccccc1-c1csc(=Nc2cccnc2)n1CCCn1ccnc1,"inconclusive: 18.4 µM [falling, partial curve]"

# Among those listed so far, these contain an aryl thioether with sulfur outside any ring.
row,SMILES,Potency
19,Cc1[nH]nc2nc(SCC(=O)NC3CCCCC3)n(-c3ccc(Br)cc3)c(=N)c12,active: 18.4 µM
23,O=C(CSc1ccccc1)NC1CCCCCC1,"inconclusive: 9.2 µM [activator, partial curve]"
2,CCC(Sc1ncnc2sc3c(c12)CCCC3)C(=O)OCC(C)C (configuration not stated),inactive
3,COc1ccc(-n2c(SCc3nc(-c4ccc(Cl)cc4)no3)nnc2-c2ccncc2)cc1,"inconclusive: 29.1 µM [falling, single point]"
13,CC(C)(C)C(=O)Nc1ccc2nc(SCCOc3ccccc3Cl)sc2c1,inactive

# Going on with the list.

row,SMILES,Potency
1,Cc1nn(C)c(Oc2ccccc2)c1CCNS(=O)(=O)c1ccc(Cl)cc1,"inconclusive: 29.1 µM [falling, single point]"
2,Cc1cccc(C=Nc2ccc3c4c(cccc24)CC3)c1O,inactive
3,Clc1ccc2c(NCc3cccs3)ncnc2c1,active: 16.4 µM
4,CC1=C(C(=O)OC2CCCCC2)C(c2ccc(C)o2)C2=C(CCCC2=O)N1 (configuration not stated),"inconclusive: 25.9 µM [falling, single point]"
5,Clc1ccc(-n2ncc3c(NCC4CCCO4)ncnc32)cc1 (configuration not stated),"inconclusive: 0.82 µM [activator, full curve]"
6,Cc1ccc2c(c1)COc1c3ccc(C(=O)N4CCCCC4)cc3nn1-2,"inconclusive: 4.61 µM [activator, full curve]"
7,CCN1CCN(c2ccc(NC(=O)c3cccc(F)c3)cc2Cl)CC1,"inconclusive: 2.31 µM [activator, partial curve]"
8,CC1CCN(C(=O)CSc2nnc3c(n2)[nH]c2ccc(F)cc23)CC1,"inconclusive: 16.4 µM [falling, single point]"
9,O=C(Nc1ccc(Cl)c(Cl)c1)c1cccc(S(=O)(=O)NCc2cccnc2)c1,active: 14.6 µM
10,CCc1ccccc1Nc1nc2ccccc2[nH]1,active: 14.6 µM
11,O=C(CN1CCN(S(=O)(=O)c2ccc(Br)cc2)CC1)N/N=C/c1ccc(Br)s1,"inconclusive: 14.6 µM [falling, partial curve, poor fit]"
12,Cc1cccc(NC(=O)CN2C(=O)CC(c3ccccc3)Sc3ccccc32)c1 (configuration not stated),inactive
13,Cc1nn(Cc2ccc(F)cc2)c(Cl)c1/C=N/NC(=O)c1cccnc1,"inconclusive: 29.1 µM [falling, single point]"
14,Cn1nc(C(=O)NCCc2ccc3c(c2)OCCO3)c2ccccc2c1=O,"inconclusive: 9.2 µM [falling, partial curve, poor fit]"
15,Cc1csc(NC(=O)c2ccc(Cn3nc(C)c(Br)c3C)o2)n1,active: 18.4 µM
16,COc1ccc(-c2nc(-c3ccc(NC(=O)c4ccncc4)cc3)no2)cc1OC,active: 13 µM
17,O=C(c1cnn2c(C(F)(F)F)cc(-c3ccccc3)nc12)N1CCCCC1c1cccnc1 (configuration not stated),"inconclusive: 23.1 µM [falling, partial curve, poor fit]"
18,Cc1ccc(NC(=O)CCc2c(C)nc3ncnn3c2C)cc1Cl,"inconclusive: 18.4 µM [falling, partial curve, poor fit]"
19,O=[N+]([O-])c1ccc(-c2ccc(S(=O)(=O)NCCN3CCCC3)cc2)cc1,active: 16.4 µM
20,O=C(Cn1cnc2c(cnn2-c2ccc(Cl)cc2)c1=O)NCC1CCCO1 (configuration not stated),"inconclusive: 10.3 µM [falling, partial curve, poor fit]"
21,CNC(CC(C)C)C(=O)NC1C(=O)NC(CC(N)=O)C(=O)NC2C(=O)NC3C(=O)NC(C(=O)NC(C(=O)O)c4cc(O)cc(O)c4-c4cc3ccc4O)C(O)c3ccc(c(Cl)c3)Oc3cc2cc(c3OC2OC(CO)C(O)C(O)C2OC2CC(C)(N)C(O)C(C)O2)Oc2ccc(cc2Cl)C1O (configuration not stated),"inconclusive: 23.1 µM [falling, single point]"
